Out of some 330,000 compounds screened, about 7,700 (2.3%) were called active. Inconclusive means that the source gave no clear call. Such entries were picked first, then a sample of the others. Calls come from the whole dose curve; as a rule, active = well fitted inhibition curve with a large enough effect; inconclusive = small, poorly fitted or top-dose-only effect, or effect the other way; inactive = flat fitted curve, though single readings scatter. Potencies of inconclusive entries are doubtful fits and often do not repeat.
Assay: qHTS screen for small molecules that inhibit ELG1-dependent DNA repair in human embryonic kidney (HEK293T) cells expressing luciferase-tagged ELG1; note: nearly all actives have a fitted effect of over 55% in size
Details: HEK293T ELG1-luciferase reporter, luminescence, 16 h, DNA damage induced by 5-fluorouridine; activity change, negative = inhibition: at 46.1 µM (top of the series)
Outline: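 Step one: seed 2,000 cells per well. Step two: pin-transfer compound or DMSO alongside 5-fluorouridine. Step three: incubate 16 hr, 37 °C, 5% CO2. Step four: add ONE-Glo, wait 30 min, read luminescence.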
In the case of `CCOc1ccc(Nc2nc(N)nc(CCl)n2)cc1`, the Potency is reported as inconclusive: 18.3 µM [inhibitor, single point]. With `O=C(Cc1cccs1)Nc1nnc(C2CC2)s1` the Potency was inconclusive: 5.17 µM [inhibitor, single point]. For `Nc1nnc(SCc2coc(-c3ccc(Cl)cc3)n2)s1`, the Potency was inconclusive: 9.2 µM [activator, partial curve]. For `O=C(c1cc(-c2cccc(Cl)c2)on1)N1CCCCCC1`, the Potency was inconclusive: 11.6 µM [activator, partial curve]. For `CCN(CC)c1ccc(/C=N/Nc2nc3ccccc3[nH]2)c(O)c1`, the Potency was inconclusive: 29.1 µM [activator, single point]. In the case of `Cc1ccc(NS(=O)(=O)N2CCOCC2)cc1`, the Potency is reported as inconclusive: 16.4 µM [activator, partial curve, poor fit]. In the case of `CC1CCCCC1NC(=O)CCNS(=O)(=O)c1cc(Br)cnc1N` (stereo not drawn), the Potency is reported as inconclusive: 29.1 µM [inhibitor, single point]. In the case of `COc1ccc(CN(CCO)CCO)cc1[N+](=O)[O-]`, the Potency is reported as inconclusive: 20.6 µM [activator, partial curve, poor fit]. With `O=C(CN1CCN(c2ccc(O)cc2)CC1)NCC(=O)Nc1ccc(F)c(F)c1F` the Potency was inconclusive: 8.91 µM [inhibitor, partial curve]. In the case of `COc1cccc(C(=O)n2ccc(-c3cccs3)n2)c1`, the Potency is reported as inconclusive: 29.1 µM [inhibitor, single point]. In the case of `CC1CN(c2ccc(Oc3ccccc3)cc2)c2nc3c(c(=O)[nH]c(=O)n3C)n2C1` (stereo not drawn), the Potency is reported as inconclusive: 13 µM [inhibitor, partial curve]. In the case of `Cn1cc(Cl)c(C(=O)N/N=C/c2ccc3c4c(cccc24)CC3)n1`, the Potency is reported as inconclusive: 4.61 µM [activator, full curve]. With `O=C(COc1ccc([N+](=O)[O-])cc1)Nn1cnnc1` the “activity change, negative = inhibition” value was inactive: 12.6%. In the case of `CC(C)(C)OC(=O)C[C@@H]1C/C=C\C[C@@H](CC(=O)N[C@@H](CO)Cc2ccccc2)C(=O)NCCOC1=O`, the Potency is reported as inconclusive: 32.6 µM [inhibitor, partial curve, poor fit]. In the case of `CC(C)N1CCN(Cc2ccc(C#CC(C)(C)O)s2)CC1CCO` (stereo not drawn), the “activity change, negative = inhibition” value is reported as inactive: 3.94%. With `CCN(CC)C(=O)OCCc1cc2ccccc2c(=O)o1` the “activity change, negative = inhibition” value was inactive: 18.4%. For `COCCn1c(SCC(=O)N2CCCc3ccccc32)nc2c(c1=O)SC(C)C2` (stereo not drawn), the “activity change, negative = inhibition” value was inactive: -9.58%. With `Cc1onc(-c2ccccc2)c1C(=O)N1CCOC12CCN(c1cccc(F)n1)CC2` the Potency was inconclusive: 23.1 µM [inhibitor, partial curve, poor fit]. With `O=C(O)COc1ccc2oc3c(c2c1)CCCC3` the “activity change, negative = inhibition” value was inactive: -4.04%. In the case of `Cc1ccc2nc3c(cc2c1)c(NC(=O)C(C)(C)C)nn3CC(C)C`, the Potency is reported as inconclusive: 18.3 µM [inhibitor, single point]. For `CCOc1ccc(CCNC(=O)C2CCCN(c3nnc(-n4cccc4)s3)C2)cc1OCC` (stereo not drawn), the Potency was inconclusive: 8.2 µM [inhibitor, partial curve, poor fit]. With `C/C(=C\c1ccccc1)C(=O)Nc1ccc(Cl)cn1` the Potency was inconclusive: 3.26 µM [activator, partial curve]. With `O=C(OCC(=O)N1CCN(C(=O)c2ccco2)CC1)c1ccccc1Cc1ccccc1` the Potency was inconclusive: 6.51 µM [activator, partial curve]. With `CC(C)CC1Nc2ncnc(N3CCOCC3)c2N(Cc2ccc(Cl)cc2)C1=O` (stereo not drawn) the Potency was inconclusive: 23.1 µM [activator, partial curve, poor fit]. For `CCCCCCOc1ccc(NC(=O)CC2C(=O)N(CC)C(=S)N2Cc2ccco2)cc1` (stereo not drawn), the Potency was inconclusive: 14.6 µM [inhibitor, partial curve, poor fit]. With `CCOc1ccccc1C(=O)N1CCC(C(=O)c2ccc(F)cc2)CC1` the Potency was inconclusive: 23.1 µM [inhibitor, partial curve]. In the case of `COc1ccc(N2CCN(C(c3cccc(OC)c3OC)c3nnnn3C3CCCC3)CC2)cc1` (stereo not drawn), the “activity change, negative = inhibition” value is reported as inactive: -0.218%. For `CCOC(=O)C1=C(CSc2nc(-c3ccncc3)ccc2C#N)OC(N)=C(C#N)C1c1cccnc1` (stereo not drawn), the Potency was inconclusive: 20.6 µM [activator, single point]. For `CCCN1CCC(=O)N(CCSc2ccccc2)CC1`, the Potency was inconclusive: 8.2 µM [activator, partial curve]. With `c1ccc(-c2nnc(SCC3CCCO3)nc2-c2ccccc2)cc1` (stereo not drawn) the Potency was inconclusive: 16.4 µM [inhibitor, single point]. For `O=Cc1ccc(OCc2nnc(-c3ccccc3Br)o2)cc1`, the Potency was inconclusive: 18.3 µM [activator, single point]. In the case of `Nc1nc(NCc2ccccc2)nc(-c2ccccc2)n1`, the Potency is reported as inconclusive: 10.3 µM [activator, partial curve, poor fit]. For `COc1ccc(-c2ccc(-c3noc(-c4ccc(OC)c(OC)c4)n3)c(OC)n2)cc1`, the “activity change, negative = inhibition” value was inactive: 1.38%. With `Cc1ccc(Cn2ccsc2=NC(=O)CCl)cc1` the “activity change, negative = inhibition” value was inactive: 1.21%. In the case of `COC(=O)c1ccc(N2C(=O)C3CC=CC(C)C3C2=O)cc1` (stereo not drawn), the “activity change, negative = inhibition” value is reported as inactive: 7.42%. In the case of `CCCCn1c(NS(=O)(=O)c2ccccc2)c(S(=O)(=O)c2ccc(C)cc2)c2nc3ccccc3nc21`, the Potency is reported as active: 18.4 µM. For `O=C(N/N=C/c1cccnc1)C1CCCCC1`, the Potency was inconclusive: 3.66 µM [inhibitor, partial curve, poor fit]. With `O=C(NC1CCCC1)c1cc(-c2ccccc2Cl)on1` the Potency was inconclusive: 20.6 µM [activator, partial curve]. With `CC1CCCC(NC(=O)COC(=O)c2n[nH]c3ccccc23)C1C` (stereo not drawn) the Potency was inconclusive: 8.2 µM [inhibitor, single point]. With `O=c1[nH]ncc(N/N=C\c2cccs2)c1Cl` the Potency was inconclusive: 20.6 µM [activator, partial curve]. With `Cc1cccc(Cn2cnc3c(nnn3Cc3ccccc3F)c2=O)c1` the Potency was inconclusive: 16.4 µM [inhibitor, single point]. For `CC1CCN(C(=O)CCc2nnc(-c3ccccc3)o2)CC1`, the Potency was inconclusive: 18.3 µM [activator, partial curve]. For `O=C(CNc1cccc2ccccc12)N/N=C/C=C/c1ccco1`, the “activity change, negative = inhibition” value was inactive: 4.49%.

Reference: PubChem BioAssay AID504467 (National Center for Advancing Translational Sciences (NCATS), 2011)
% is set by controls: 0 for no effect and ±100 for the full control effect; potency is the fitted concentration of half-maximal effect.
